Reference: PubChem BioAssay AID2685 (National Center for Advancing Translational Sciences (NCATS), 2010)
The list shows a part of the results. Further columns of the screen follow, without active or inactive calls. Most of these compounds were active or inconclusive in the main read-out, so they are no random draw. Words in brackets tell the shape of the fitted curve; partial curves, single points and poor fits give uncertain potencies.

Experiment: qHTS Assay for Lipid Storage Modulators in Drosophila S3 Cells;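 for cell number change: cells counted by Cell Tracker Red CMTPX staining in the red channel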
Conditions: BODIPY lipid droplet fluorescence, 18-24 h; for cell number change: measured here: cell count max response, cells fed with added oleic acid
Outline: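 Drosophila S3 cells loaded with oleic acid (400 uM, as added) and compounds at several concentrations; lipid droplets imaged by 488-nm laser-scanning cytometry, 500–530 nm intensity and object ratio to cell channel. Percent activity normalized to 20 uM Triacsin C.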

[1] = measured here: cell number channel AC50, cells fed with added oleic acid
[2] = measured here: lipid fluorescence (Fed channel) AC50, cells fed with added oleic acid

Row | Structure (SMILES) | cell number change [%] | AC50 [1] | AC50 [2]
1 | COc1cc(SC)ccc1C(=O)NCC1CCCO1 (configuration not stated) | 34.8 | 1.64 µM [rising, partial curve] | 10.3 µM [falling, single point]
2 | O=C(NCc1ccco1)c1nc2ncccn2n1 | 6.09 |  | 6.51 µM [falling, single point]
3 | COc1ccc(NS(=O)(=O)c2cc(C(=O)N3CCC3)ccc2C)cc1 | 48.1 | 29.1 µM [rising, single point] | 32.6 µM [rising, partial curve, poor fit]
4 | O=C(COC(=O)c1ccc2c(c1)OCCO2)Nc1cccc(S(=O)(=O)N2CCOCC2)c1 | 59.1 | 16.4 µM [rising, single point] | 20.6 µM [rising, partial curve]
5 | COc1ccc(NC(=O)C2CCCN(S(=O)(=O)c3ccc(-n4cnnn4)cc3)C2)cc1 (configuration not stated) | -44.3 | 23.1 µM [falling, single point] | 29.1 µM [rising, single point]
6 | C=CCN1C(=O)C2(NC(=O)c3ccccc3N2)c2ccccc21 (configuration not stated) | -44.1 | 13 µM [falling, partial curve] | 18.4 µM [falling, single point]
7 | CC1CCc2[nH]c3ccc(C(=O)NCC4CCCO4)cc3c2C1 (configuration not stated) |  |  | 1.64 µM [falling, partial curve, poor fit]
8 | COc1cc(NS(=O)(=O)c2ccc(NS(=O)(=O)c3ccccc3)cc2)nc(OC)n1 | -30.1 | 2.59 µM [falling, full curve] | 0.146 µM [falling, full curve, poor fit]
9 | CC1(C)Cc2ccccc2C(/C(=N/O)C(N)=O)=N1 | 3.2 |  | 0.00461 µM [falling, full curve, poor fit]
10 | CNc1nc(SCC(=O)Nc2ccc(Cl)c(Cl)c2)nc(N2CCOCC2)n1 | 81.7 | 20.6 µM [rising, partial curve] | 
11 | COC(C(=O)Nc1cccc([N+](=O)[O-])c1)c1ccccc1 (configuration not stated) | -2.37 |  | 
12 | CCC(C(=O)NCc1ccc(F)cc1)N(Cc1cccs1)C(=O)c1snc(C(N)=O)c1N (configuration not stated) | -6.58 |  | 
13 | O=C(NCc1cccc(C(F)(F)F)c1)C1CCN(c2ncccn2)CC1 | 4.61 |  | 
14 | CCc1c(C)nc2ncnn2c1N1CCCC(C(=O)NCCc2ccccc2)C1 (configuration not stated) | -29 |  | 
15 | COc1ccc(/C=N/NC(=O)CCOc2ccccc2C)cc1OC | 15.1 |  | 32.6 µM [rising, single point]
16 | O=C(CSc1nnc(COc2ccc(Br)cc2)o1)NC1CCCCC1 | 34.6 | 1.64 µM [rising, partial curve] | 
17 | NC(=O)COC(=O)/C=C/c1ccccc1[N+](=O)[O-] | -39.5 | 5.17 µM [falling, full curve] | 4.61 µM [falling, full curve, poor fit]
18 | CCSc1nc2c(c(=O)[nH]c(=O)n2C)n1C/C=C(/C)Cl | 12.1 |  | 0.731 µM [rising, full curve]
19 | C/C(=N\NC(=O)c1ccc(N)cc1)C1CC1 | 23.5 |  | 
20 | Cc1c(NC(=O)COC(=O)/C=C/c2ccccc2Br)c(=O)n(-c2ccccc2)n1C | -19.3 |  | 0.00651 µM [rising, full curve, poor fit]

Looked up above.
Entry of C=CCN1C(=O)C2(NC(=O)c3ccccc3N2)c2ccccc21 (configuration not stated) under AC50 [2]: 18.4 µM [falling, single point]
Entry of CCc1c(C)nc2ncnn2c1N1CCCC(C(=O)NCCc2ccccc2)C1 (configuration not stated) under cell number change [%]: -29

A draw from above in order of SMILES length, largest number first.
Row | Structure (SMILES) | cell number change [%] | AC50 [1] | AC50 [2]
13 | O=C(NCc1cccc(C(F)(F)F)c1)C1CCN(c2ncccn2)CC1 | 4.61 |  | 
18 | CCSc1nc2c(c(=O)[nH]c(=O)n2C)n1C/C=C(/C)Cl | 12.1 |  | 0.731 µM [rising, full curve]
17 | NC(=O)COC(=O)/C=C/c1ccccc1[N+](=O)[O-] | -39.5 | 5.17 µM [falling, full curve] | 4.61 µM [falling, full curve, poor fit]

Going on with the list:

Row | Structure (SMILES) | cell number change [%] | AC50 [1] | AC50 [2]
21 | Cc1noc(C)c1C(=O)OCC(=O)Nc1ccccc1Oc1ccccc1 | 114 | 14.6 µM [rising, partial curve] | 20.6 µM [rising, partial curve]
22 | CCOC(=O)c1sc2nc(-c3ccccc3)ccc2c1N | -15.9 |  | 2.31 µM [rising, single point]
23 | CCS(=O)(=O)N1CCC(N2CCC(C)CC2)CC1 | -22.3 |  | 16.4 µM [falling, single point]
24 | CCC(C)N1C(=O)S/C(=C/c2ccc3c(c2)n(C)c(=O)n3C)C1=O (configuration not stated) | -30.4 | 29.1 µM [falling, single point] | 
25 | Cn1nnnc1SCC(=O)N1CCN(c2ccccc2)CC1 |  | 0.00411 µM [falling, full curve, poor fit] | 
26 | Cn1ccc(NS(=O)(=O)c2cc(Br)ccc2Br)n1 | 52.3 | 32.6 µM [rising, partial curve, poor fit] | 20.6 µM [rising, single point]
27 | Cc1ccc(S(=O)(=O)NC(C)(C)C)cc1C(=O)OC(C)C(=O)NC1CC1 (configuration not stated) | 11.5 |  | 
28 | COc1cc2c(cc1OC)C(C)N(C(=O)c1ccc(Br)o1)CC2 (configuration not stated) | 10.7 |  | 29.1 µM [rising, single point]
29 | O=C(NCc1cccs1)C1CCCCC1 | -88.6 | 29.1 µM [falling, single point] | 
30 | O=C(NC1CCCC1)C(c1ccc(O)cc1)N(CC1CCCO1)C(=O)C1COc2ccccc2O1 (configuration not stated) | 88.5 | 18.4 µM [rising, single point] | 6.51 µM [rising, single point]
31 | COc1ccc(/C(=C/Nc2cccc(Br)c2)C(C)=O)cc1OC | 24.6 |  | 
32 | COc1ccc(CCNc2oc(COc3ccc(F)cc3)nc2C#N)cc1 |  | 3.66 µM [rising, partial curve, poor fit] | 6.51 µM [rising, single point]
33 | CCC(C)NC(=O)NC1C(NC(=O)NC(C)CC)N(C)C(=O)N1C (configuration not stated) | 1.56 |  | 6.51 µM [falling, single point]
34 | Cc1ccc(NC(=S)N(CCCN2CCOCC2)Cc2ccco2)cc1 |  | 6.51 µM [falling, single point] | 29.1 µM [rising, single point]
35 | O=C(CN1C2=NCCN2c2ccccc21)c1ccc2c(c1)OCO2 | -1.47 |  | 10.3 µM [rising, single point]
36 | Cc1cccc(C)c1NC(=O)C1c2ccccc2Oc2ccccc21 | 3.52 |  | 
37 | CCOP(=O)(c1ccccc1)c1nc(-c2ccccc2Cl)oc1N1CCCCC1 (configuration not stated) | -49.8 | 23.1 µM [falling, single point] | 29.1 µM [falling, single point]
38 | Cc1ccc(C(=O)OCC(=O)Nc2sc3c(c2C#N)CCCCC3)cc1NC(=O)c1ccco1 | -13.8 | 6.51 µM [falling, partial curve] | 
39 | CC(=O)C1=C(C)OC(N)=C(C#N)C1c1cccc([N+](=O)[O-])c1 (configuration not stated) | -4.05 |  | 
40 | COc1ccc(OC)c(NS(=O)(=O)c2cc3c4c(c2)CCN4C(=O)CC3)c1 | -98.2 | 20.6 µM [falling, single point] | 0.206 µM [rising, full curve, poor fit]

Row | Structure (SMILES) | cell number change [%] | AC50 [1] | AC50 [2]
41 | CCCc1cc(=O)[nH]c(SCC(=O)Nc2ccc(Br)cc2Br)n1 | 46.1 | 18.4 µM [rising, single point] | 0.0731 µM [falling, full curve, poor fit]
42 | CCOc1ccc(NC(=O)CCc2nnc3ccc(N4CCC(C)CC4)nn23)cc1 | 3.05 |  | 23.1 µM [falling, single point]
43 | Cc1nn(-c2cc(C(F)(F)F)ccc2Cl)c2nc(C(Cl)(Cl)Cl)[nH]c(=O)c12 | -26.6 | 4.11 µM [falling, full curve, poor fit] | 4.61 µM [falling, full curve, poor fit]
44 | Cc1ccnc(NS(=O)(=O)c2ccc(NC(=O)c3cc(-c4ccccc4)nc4ccccc34)cc2)n1 | 1.93 |  | 
45 | COc1ccccc1-n1c(SCC(=O)Nc2ccc(Br)cc2)nc(O)cc1=O | -39.6 | 5.8 µM [falling, full curve] | 
46 | CCN(CC)C(=O)Cn1c(=O)n(CCCCCC(=O)Nc2ccccc2)c(=O)c2sccc21 | -14.3 |  | 0.164 µM [falling, full curve, poor fit]
47 | COCCOC(=O)C1=C(C)Nc2nc(C)nn2C1c1ccc(F)cc1 (configuration not stated) | 6.42 |  | 
48 | Cc1cc(C)cc(N(CCC#N)C(=O)COC(=O)CNC(=O)c2sc3ccccc3c2Cl)c1 | 30 |  | 
49 | Cn1nc(C(F)(F)F)c(-c2ccc(Br)cc2)c1NC(=O)CSCC(=O)O | -21.1 | 0.00411 µM [falling, full curve, poor fit] | 7.31 µM [rising, partial curve]
50 | CCCC1CCc2c(sc(NC(=O)c3cccs3)c2C(N)=O)C1 (configuration not stated) | -3.11 |  | 0.058 µM [falling, full curve, poor fit]
51 | C=C(C)c1cccc(C(C)(C)NC(=O)Nc2ccc(C(C)=O)cc2)c1 | -53.6 |  | 8.2 µM [rising, single point]
52 | CN(C)/C=C1\C(=O)NN=C1C(F)(F)F | -110 | 25.9 µM [falling, single point] | 
53 | CC(NC(=O)Cc1ccc(F)cc1)c1ccc(F)cc1 (configuration not stated) | -12.1 | 0.13 µM [falling, full curve, poor fit] | 1.03 µM [falling, full curve, poor fit]
54 | CC(C)CNC(=O)c1cccc(NC(=O)Cc2ccc(Br)cc2)c1 | 16.1 |  | 16.4 µM [rising, partial curve]
55 | CCOC(=O)C(NC(=O)CC)C(O)c1cccc([N+](=O)[O-])c1 (configuration not stated) | -23.1 |  | 29.1 µM [falling, single point]
56 | COc1ccccc1C(=O)NCC(c1cccs1)N1CCc2ccccc21 (configuration not stated) |  | 2.06 µM [rising, partial curve] | 
57 | CCc1[nH]nc2c1C1(CCOC1C)C(C#N)=C(N)O2 (configuration not stated) | 11.8 |  | 
58 | C#CCSc1nnc(-c2ccc(OC)cc2)o1 | 68.2 | 0.731 µM [rising, full curve] | 1.03 µM [rising, full curve]
